In patent US9073880B2, “2-(2-phenylethenyl) 1,3-benzodiazepine derivatives useful for the treatment of cancer” (Yissum Research Development Company of the Hebrew …, priority 2010, dated 2015):
Some results were stated once for a whole list of compounds, not compound by compound.

Legend:
IRS1 & IRS2 = assay: IRS1 and IRS2 levels in A375 cells (Example 5); type: cell-based, human; settings: 3 μM, 48 hr, FIG. 6A
Protocol: (§1) The effect of compound 5 on IRS1 & IRS2 levels and its effect on IGF1-induced Akt/PKB activation and apoptosis in melanoma A375 cells were tested. Cells were seeded in 6-well plates (150,000 A375 cells/well) and 24 hours later medium was replaced by serum-free medium (RPMI supplemented with 100 units/ml penicillin and 100 μg/ml streptomycin), […], and then stimulated for 5 minutes with 50 ng/ml IGF-1, washed twice with PBS and lysed by boiling sample buffer (10% glycerol, 50 mM Tris-HCl, pH 6.8, 3% SDS, and 5% β-mercaptoethanol). Equal amounts of protein per lane were separated by 8% SDS-PAGE and transferred to a nitrocellulose membrane (Sartorius AG). To detect the inhibition of the Akt/PKB activation, phosphorylated proteins were immunoblotted with anti-phospho(T308)Akt (pT308-PKB) and anti-phospho-Tuberin/TSC2 (pTuberin) antibodies. To visualize cell death induced by compound 5, the intact and the cleaved PARP were immunoblotted with anti-PARP antibody. The changes in the levels of IRS1 and IRS2 were detected with specific antibodies. Detection was performed with horseradish peroxidase-conjugated secondary antibody using the ECL system. Blots were then stripped of antibodies, blocked with TBST with 5% low fat milk and re-probed with antibodies detecting both the phosphorylated and the non-phosphorylated Akt/PKB.
(§2) In addition, lysates of human melanoma A375 cells were prepared from cells exposed to compound 2, 3, 4 and 5 at 3 μM concentrations in serum-free medium for 48 hr. Lysate preparation and western blot were performed as described above. IRS1 levels and PARP cleavage were visualized.
(§3) In order to test whether a short exposure to compound 5 would suffice to trigger a long-term inhibition of IGF1-induced signaling and cancer cell apoptosis, serum-starved human melanoma A375 cells were treated with compound 5 at 5 μM concentration for 4 hr. Cells were then washed twice with medium and incubated in a serum-free medium for 0, 2.5 and 24 hr, stimulated with 50 ng/ml IGF1 for 5 min and lysed.

[1] = tested on: human melanoma A375 cells; assay: Cell death (PARP cleavage) in A375 cells; type: cell-based; settings: 3 μM, 48 hr, FIG. 6A, 6B
Protocol: as §1, §2, §3

SMILES	IRS1 levels (IRS1 & IRS2)	cell death (PARP cleavage) [1]
N#C/C(=C\c1cc(O)c(O)c(I)c1)c1ncc2cc(O)c(=O)c(O)c-2s1 [Compound 2]	dramatic decrease in IRS1 levels	massive cleavage of PARP
O=c1c(O)cc2cnc(/C=C/c3cc(O)c(O)c(Br)c3)sc-2c1O [Compound 3]	dramatic decrease in IRS1 levels	massive cleavage of PARP
O=c1c(O)cc2cnc(/C=C/c3cc(O)c(O)c(I)c3)sc-2c1O [Compound 4]	dramatic decrease in IRS1 levels	massive cleavage of PARP
O=c1c(O)cc2cnc(/C=C/c3ccc(O)c(O)c3Br)sc-2c1O [Compound 5]	dramatic decrease in IRS1 levels	massive cleavage of PARP
